Experimental data taken from patent US6884575B2, “Phosphoprotein target for insulin and its antagonists” (Protemix Corporation Limited, priority 2001, dated 2005).
At least one compound was matched to its structure with a doubt left.

Test system: P20
Experiment: P20 mRNA (northern blot) and protein (western blot) in EDL muscle
Type: cell-based, rat
Conditions: dexamethasone-injected rats or strips with 50 nM amylin 30 min
Procedure: About 50 μg proteins from liver, heart, epididymal fat pad, aortic smooth muscle, EDL muscle, soleus muscle tissues and whole blood obtained from 18 h-fasted male Wistar rats were separated by SDS-PAGE and subsequently transferred to nitrocellulose membranes. The membranes were blocked over night at 4° C. and then incubated with rabbit anti-P20 polyclonal antibody (1:1000) for 2 h at room temperature. After incubation with streptavidin-biotinylated horseradish peroxidase-conjugated secondary antibody for another 1 h at room temperature, the proteins immunoreactive to the primary antibody were visualised by enhanced chemiluminescence (ECL) detection according to the manufacturer's instructions.
Total cellular RNA was isolated from EDL muscle of 18 h-fasted control and dexamethasone-treated rats using TRIZOL reagent. 15 μg of RNA from each sample was separated by 1.5% agarose-formaldehyde gel electrophoresis and subsequently transferred to Hybond-N^+ nylon membranes by capillary blotting in 20×SSC. The P20 cDNA probe was labelled with ^32P-dCTP using a random primer labelling system. […] Membranes were then washed, analysed using a phosphorimager and quantitated by MacBAS v2.5 software. For comparison, RNA samples from EDL muscle strips treated with or without 50 nM amylin were also analysed in parallel.

## C[C@@H]1C[C@H]2[C@@H]3CCC4=CC(=O)C=C[C@]4(C)[C@@]3(F)[C@@H](O)C[C@]2(C)[C@@]1(O)C(=O)CO [Dexamethasone, dexamethasone]
  P20 mRNA level and protein abundance: not altered
